Reference: patent publication US20250127918A1, “SITE-SELECTIVE CONJUGATION OF A PHARMACEUTICAL AGENT TO AN ANTIBODY USING AN AFFINITY PEPTIDE” (priority 2023, published 2025)
Some entries share one result that the patent states for a list of compounds.

Test system: mouse IgG
Assay: Azido transfer to mouse IgG in vivo (E1/E2 ELISA of serum)
Settings: subcutaneous injection of 30 mg/kg, WT Swiss mice, serum at 24 h
Description: To evaluate the in vivo azido transfer in mice, two groups of mice were injected subcutaneously or intraperitoneally with the IgG-binder peptides. Mice were sacrificed at 24 hours post-injection, and the blood was collected for ELISA analysis. Sandwich ELISA assays. […] The percentage azido transfer was also compared with intraperitoneal injection of 10 mg/kg Z33-E20Hcy, intraperitoneal injection of 30 mg/kg of Z33-E20Hcy, subcutaneous injection of 30 mg/kg Z33-E20Hcy, and intraperitoneal injection of 30 mg/kg pegylated-Z33-E20Hcy (FIG. 2D).
Two sandwich ELISA assays have been developed in-house, one for the detection of the azido moiety conjugated mouse IgG (mIgG, E1), the other one for the detection of the whole mIgGs (modified and unmodified) in the sample (E2). Both E1 and E2 were run simultaneously on a same plate, using the same initial stock sample, and were processed in parallel at the same time for every steps. […] Absorbances were measured at 450 nm and 540 nm (A0=A450 nm-A540 nm) using a Spark microplate reader (Tecan, USA). The background noise (Ablank) from the serum was subtracted to get the final absorbance of the sample (Asample=A0-Ablank). The ratio Asample (E1)/Asample (E2) was calculated to estimate the percentage of azido transfer on the total amount of IgG in the sample. […]

Row | Substance | Azido transfer to mouse IgG in vivo (conversion rate) (listed as Z33-E20Hcy) | Azido transfer to mouse IgG in vivo (conversion rate) (listed as pegylated-Z33-E20Hcy)
1 | FNMQQQRRFYEALHD PNLNHcyEQRNAKIKSI RDD [PEL-21] | 30-40% | 
2 | H2N-PEG8- FNMQQQRRFYEALHD PNLNHcyEQRNAKIKSI RDD [PEL-30] |  | 30-40%
